The values below come from US20230257436A1 (published 2023).

Protein sequences, listed by entry. Tags and fused reporters are not part of them. Residues count along the entry.
UniProt P28799, residues 18-593: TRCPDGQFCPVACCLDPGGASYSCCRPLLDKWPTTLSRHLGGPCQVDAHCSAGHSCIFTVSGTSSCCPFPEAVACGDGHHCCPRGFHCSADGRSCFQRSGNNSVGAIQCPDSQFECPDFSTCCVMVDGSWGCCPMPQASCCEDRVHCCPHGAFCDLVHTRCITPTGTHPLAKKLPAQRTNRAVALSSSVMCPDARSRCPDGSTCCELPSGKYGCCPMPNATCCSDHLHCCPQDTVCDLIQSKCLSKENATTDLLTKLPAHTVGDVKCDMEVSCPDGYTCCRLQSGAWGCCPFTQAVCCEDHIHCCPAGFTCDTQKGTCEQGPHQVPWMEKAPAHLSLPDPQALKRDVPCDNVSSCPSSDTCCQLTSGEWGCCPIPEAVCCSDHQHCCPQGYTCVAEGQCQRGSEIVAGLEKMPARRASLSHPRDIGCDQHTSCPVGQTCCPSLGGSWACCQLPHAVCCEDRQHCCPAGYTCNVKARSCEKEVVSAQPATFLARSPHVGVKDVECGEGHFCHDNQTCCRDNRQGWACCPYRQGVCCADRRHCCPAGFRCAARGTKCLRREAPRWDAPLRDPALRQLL

These are yes or no findings as the source states them, for the method shown. Some binding calls cover weakened binding; strength is not graded here.

The target in assay [1] is T1, endogenous human prosaposin (PSAP), as expressed by non-PSAP-transfected ARPE-19 derived cells and as present in human plasma and CSF (human) (UniProt P07602).
T1 sequence (looked up): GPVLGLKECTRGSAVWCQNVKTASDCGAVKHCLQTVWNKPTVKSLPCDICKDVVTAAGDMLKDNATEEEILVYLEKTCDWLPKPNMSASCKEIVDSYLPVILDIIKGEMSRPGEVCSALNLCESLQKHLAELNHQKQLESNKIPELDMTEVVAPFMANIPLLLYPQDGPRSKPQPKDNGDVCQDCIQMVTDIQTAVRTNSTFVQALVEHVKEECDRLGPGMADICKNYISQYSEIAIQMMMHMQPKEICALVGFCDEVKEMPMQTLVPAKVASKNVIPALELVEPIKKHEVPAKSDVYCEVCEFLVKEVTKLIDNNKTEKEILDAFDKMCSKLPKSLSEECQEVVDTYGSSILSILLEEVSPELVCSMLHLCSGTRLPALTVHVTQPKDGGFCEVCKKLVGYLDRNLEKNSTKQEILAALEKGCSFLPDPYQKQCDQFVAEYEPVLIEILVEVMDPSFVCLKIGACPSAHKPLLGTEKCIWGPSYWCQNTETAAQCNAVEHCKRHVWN
Nature of the assay: PGRN/PSAP and PSAP/PGRN sandwich ELISA on conditioned media. Background: An ELISA detects its analyte on a solid surface through an enzyme-linked reagent.

The target of assay [2] is T2, commercially available recombinant PSAP (Abnova) (UniProt P07602).
T2 sequence (looked up): T1 sequence (looked up)
Nature of the assay: sandwich ELISA, capture of PGRN or of PSAP first, detection of the other.

For assay [3], the target named is T2, commercially available recombinant PSAP (Abnova). Nature of the assay: PGRN/PSAP complex sandwich ELISA (anti-PGRN capture, anti-PSAP detection).
Assay [4] shares this target. Briefly: PSAP/PGRN complex sandwich ELISA (anti-PSAP capture, anti-PGRN detection).

On to “FLAG-PGRN secreted from FLAG-PGRN transfected cells (from UniProt P28799 18-593) (ligand)”, for which the binding result in assay [1] is recorded as “binds”.

For the substance “commercially available recombinant PGRN (R&D Systems; PGRN-His, cat no. 2420-PG) (from UniProt P28799 18-593) (ligand)”, the binding entry in assay [2], in assay [3] and in assay [4] was “binds” each time.
